Source: paper PMC4839630, “Investigation the Possibility of Using Peptides with a Helical Repeating Pattern of Hydro-Phobic and Hydrophilic Residues to Inhibit IL-10” (PLoS ONE, 2016)
No constants are given. Whether binding was seen depends on the method and setting. Some binding calls cover weakened binding; strength is not graded here.

Protein sequences, listed by entry. Tags and fused reporters are not part of them. Residues count along the entry.
UniProt P22301, residues 19-178: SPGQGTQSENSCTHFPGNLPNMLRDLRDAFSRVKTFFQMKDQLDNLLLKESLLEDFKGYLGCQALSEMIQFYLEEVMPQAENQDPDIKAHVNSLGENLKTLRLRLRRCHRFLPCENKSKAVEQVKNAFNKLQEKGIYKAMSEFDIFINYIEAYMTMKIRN

Target: T1, Recombinant Human interleukin 10 receptor alpha (human) (UniProt Q13651)
T1 sequence: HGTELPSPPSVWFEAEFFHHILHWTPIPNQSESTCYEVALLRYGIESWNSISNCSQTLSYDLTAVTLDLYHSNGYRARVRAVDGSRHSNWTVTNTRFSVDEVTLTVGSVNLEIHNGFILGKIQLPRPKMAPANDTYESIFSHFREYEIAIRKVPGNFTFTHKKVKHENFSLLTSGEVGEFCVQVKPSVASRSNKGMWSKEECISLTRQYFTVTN
Assay: SPR; competitive binding assay: peptides at various concentrations co-injected with 33 nM IL-10 over immobilised IL-10R1, 25°C, 1X PBS pH 7.4; inhibition read as loss in total response units; both purified

Human IL10 (from UniProt P22301 19-178) (ligand)
binding: binds
